In assay [1] the target is Flag-Snail (UniProt O95863). Description: co-IP; A549 cells transfected with Snail-flag or HA-TAZ for 48 h; lysis in 20 mM Tris-HCl pH 7.4, 150 mM NaCl, 1 mM EDTA, 1% Triton-X100; anti-HA/flag antibody with protein A/G plus agarose, 4 °C overnight; washed three times with PBS; western blot for Snail, TAZ and c-Jun.
In assay [2] the target is HA-TAZ (UniProt Q9GZV5). Described as above.

Sequences of proteins named here, by UniProt entry; tags and fusion partners are left off.
UniProt O95863: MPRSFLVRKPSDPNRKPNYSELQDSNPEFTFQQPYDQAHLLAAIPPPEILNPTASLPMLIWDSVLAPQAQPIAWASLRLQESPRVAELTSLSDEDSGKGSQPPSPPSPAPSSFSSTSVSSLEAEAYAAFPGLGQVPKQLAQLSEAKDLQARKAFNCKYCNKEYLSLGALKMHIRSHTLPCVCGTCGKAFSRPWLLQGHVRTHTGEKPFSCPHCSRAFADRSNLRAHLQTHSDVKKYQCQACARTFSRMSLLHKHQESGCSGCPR
UniProt Q9GZV5: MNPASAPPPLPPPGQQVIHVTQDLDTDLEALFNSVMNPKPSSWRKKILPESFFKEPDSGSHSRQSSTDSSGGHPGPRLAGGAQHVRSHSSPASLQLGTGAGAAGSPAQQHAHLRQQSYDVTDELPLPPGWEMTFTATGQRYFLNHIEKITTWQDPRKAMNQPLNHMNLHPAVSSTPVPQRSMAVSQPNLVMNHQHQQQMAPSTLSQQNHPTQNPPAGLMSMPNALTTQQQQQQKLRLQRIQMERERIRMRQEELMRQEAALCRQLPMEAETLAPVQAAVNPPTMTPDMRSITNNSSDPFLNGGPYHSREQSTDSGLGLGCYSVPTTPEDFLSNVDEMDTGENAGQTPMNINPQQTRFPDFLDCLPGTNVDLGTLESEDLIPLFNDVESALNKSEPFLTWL
UniProt P05412: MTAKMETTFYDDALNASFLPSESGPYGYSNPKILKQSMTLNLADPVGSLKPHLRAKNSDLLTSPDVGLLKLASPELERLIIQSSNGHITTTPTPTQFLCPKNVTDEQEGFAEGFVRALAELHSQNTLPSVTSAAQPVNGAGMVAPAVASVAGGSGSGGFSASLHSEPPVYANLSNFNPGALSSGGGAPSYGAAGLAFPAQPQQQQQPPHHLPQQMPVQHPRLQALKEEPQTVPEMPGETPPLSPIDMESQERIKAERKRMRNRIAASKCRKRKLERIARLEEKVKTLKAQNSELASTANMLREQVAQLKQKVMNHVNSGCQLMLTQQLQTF

No constants are given. Whether binding was seen depends on the method and setting. Binding seen in cells or lysates may run through a third protein. Some binding calls cover weakened binding; strength is not graded here.

Regarding c-Jun (from UniProt P05412 1-331), the binding result in assay [1] and in assay [2] was “binds” throughout.

With Snail (from UniProt O95863 1-264), the binding result in assay [2] is recorded as “binds”.

Regarding TAZ (from UniProt Q9GZV5 1-400), the binding result in assay [1] was “binds”.

For the origin of these results see publication PMC7583203.
